PubChem BioAssay AID1259405 | NCATS – 2018

Screen: 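Mouse-designed siRNAs used to find CHO productivity engineering targets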 (primary screen)
System: Chinese hamster CHO-K1 ovary cells with stable secreted eGFP expression
Reagent: single siRNA against mouse genes, 0.8 pmol siRNA per well (2 µl of 400 nM stock)
Time to read-out: 3 days
Detection: 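Percent of the per-plate non-targeting control median for intracellular GFP per well by laser scanning cytometry and for cell viability by ATP luminescence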
Scale: GFP, % of control: higher = more GFP per well, higher productivity; viability (ATP), % of control: higher = more viable cells (more ATP)
Hit rule: 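Called active when intracellular GFP, relative to negative control, is at or above 120%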
Shown is an unselected part of about 50,000 deposited reagents. About 4,000 of all reagents (8%) were called active. 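Mouse siRNA library applied to hamster cells; one well for each siRNA.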 A number with no mark means an inactive call.

no.	gene	PubChem SID	GFP, % of control	viability (ATP), % of control
1	Cox4i2	SID363568891	142 (active)	101
2	Cox4i2	SID363576283	108	71.3
3	Cox4i2	SID363579099	75.6	55.6
4	Slc7a8	SID363574944	78.3	69
5	Slc7a8	SID363580576	121 (active)	119
6	Slc7a8	SID363582688	87.6	75.8
7	Fbxl14	SID363539950	102	87.6
8	Fbxl14	SID363561251	112	81.1
9	Fbxl14	SID363564287	80.7	79
10	Cngb1	SID363547109	39.6	17.4
11	Cngb1	SID363549921	49.2	57
12	Cngb1	SID363587975	152 (active)	138
13	Hsp90b1	SID363582545	87.7	117
14	Hsp90b1	SID363584305	76.4	80
15	Tnnc1	SID363572352	68.1	99.6
16	Tnnc1	SID363574112	90.3	112
17	Retnlb	SID363554961	83.7	95
18	Retnlb	SID363568408	164 (active)	65.5
19	Retnlb	SID363586467	93.6	111
20	Cyth4	SID363545971	92	62.3
21	Cyth4	SID363549484	89.3	108
22	Cyth4	SID363563290	79.6	83.9
23	Baat	SID363569065	95.9	98
24	Baat	SID363583497	64.2	80
25	Pde12	SID363539585	64.6	88.1
26	Pde12	SID363560886	85.5	62.3
27	Pde12	SID363564976	89.6	84.4
28	Spata20	SID363572832	43.3	49.1
29	Spata20	SID363577408	38.2	43.7
30	Spata20	SID363580928	46.8	64.2
31	Pcdha11	SID363541799	71	75.2
32	Pcdha11	SID363553391	78.4	82.3
33	Pcdha11	SID363566715	57.3	87.9
34	Stk-ps2	SID363547274	117	73.1
35	Stk-ps2	SID363558043	49.8	61.5
36	Stk-ps2	SID363559801	80.9	71.8
37	BC031181	SID363547132	96.9	88.2
38	BC031181	SID363549944	67	85.2
39	BC031181	SID363587998	163 (active)	114
40	Sun3	SID363541133	41	44.7
41	Sun3	SID363555760	88.3	73.5
42	Sun3	SID363566049	80.2	83.2
43	Rbfa	SID363540628	58.7	70.9
44	Rbfa	SID363543079	74.1	82.3
45	Rbfa	SID363552572	106	74.5
46	Cd300lf	SID363568846	73.9	93.9
47	Cd300lf	SID363576238	65.4	64.7
48	Cd300lf	SID363579054	83.3	45.1
49	Tmem106a	SID363546914	40.9	36.7
50	Tmem106a	SID363549726	97.3	76.3
51	Tmem106a	SID363587780	126 (active)	114
52	Dek	SID363539746	59.8	78.6
53	Dek	SID363561047	140 (active)	96.4
54	Dek	SID363565137	71.9	76.7
55	Tep1	SID363569114	94	90.3
56	Tep1	SID363583546	92.4	88.1
57	Prox2	SID363555486	66.5	82.2
58	Prox2	SID363564147	63.6	46.6
59	Prox2	SID363587693	72	79.5
60	Atp5mj	SID363543561	49	44.5
61	Atp5mj	SID363553054	45.3	36.1
62	Atp5mj	SID363558902	74.9	83.5
63	Naa16	SID363545174	94.2	56.7
64	Naa16	SID363548687	59.6	75.6
65	Naa16	SID363562493	78	51.4
66	Rnf34	SID363572632	68	61.7
67	Rnf34	SID363577912	77.5	67.1
68	Rnf34	SID363582136	129 (active)	104
69	Pla2g4b	SID363569515	99.7	68.5
70	Pla2g4b	SID363577259	131 (active)	103
71	Pla2g4b	SID363578667	93.9	104
72	Samd13	SID363541634	135 (active)	52.6
73	Samd13	SID363553226	40.9	36.7
74	Samd13	SID363566550	57.7	55.8
75	Rnf126	SID363555058	124 (active)	82.7
76	Rnf126	SID363568505	63.2	52.9
77	Rnf126	SID363586564	0.865	162
78	Mettl21e	SID363542445	57	81.2
79	Mettl21e	SID363551936	67	55.7
80	Mettl21e	SID363559541	56.1	53.6
81	H2-Q1	SID363553755	33.3	31.5
82	H2-Q1	SID363561712	59.8	70.3
83	H2-Q1	SID363565450	84	79
84	Kbtbd3	SID363540510	52.5	60.2
85	Kbtbd3	SID363542262	87.1	77
86	Kbtbd3	SID363567178	79.2	75.2

6 entries from above in another layout:
{"gene":"Cngb1","PubChem SID":"SID363587975","GFP, % of control":"152 (active)","viability (ATP), % of control":138}
{"gene":"Hsp90b1","PubChem SID":"SID363582545","GFP, % of control":87.7,"viability (ATP), % of control":117}
{"gene":"Hsp90b1","PubChem SID":"SID363584305","GFP, % of control":76.4,"viability (ATP), % of control":80}
{"gene":"Tnnc1","PubChem SID":"SID363572352","GFP, % of control":68.1,"viability (ATP), % of control":99.6}
{"gene":"Tnnc1","PubChem SID":"SID363574112","GFP, % of control":90.3,"viability (ATP), % of control":112}
{"gene":"Retnlb","PubChem SID":"SID363554961","GFP, % of control":83.7,"viability (ATP), % of control":95}
